Data on 42 sequences can be found in article PMC7819943, “Rice protein-binding microarrays: a tool to detect cis-acting elements near promoter regions in rice”.

Sequences of proteins named here, by UniProt entry; tags and fusion partners are left off.
UniProt Q0JBA9, entry or part of it: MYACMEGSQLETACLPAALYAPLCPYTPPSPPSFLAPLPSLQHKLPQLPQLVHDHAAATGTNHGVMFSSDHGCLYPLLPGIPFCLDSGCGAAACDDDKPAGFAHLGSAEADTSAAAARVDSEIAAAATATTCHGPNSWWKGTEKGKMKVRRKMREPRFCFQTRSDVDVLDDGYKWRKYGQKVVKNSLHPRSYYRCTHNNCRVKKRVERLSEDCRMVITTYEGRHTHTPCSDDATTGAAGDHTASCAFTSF

This is one part of the list.

For the assay, the target named is OsWRKY34 (Oryza sativa, UniProt Q0JBA9 1-250). In words: protein-binding microarray (RPBM); PBS, 2% BSA, 51.3 ng/ul salmon testes DNA, 50 uM zinc acetate, 200 nM TF, 25 C, 1 h; high values mean tight binding. The note with it: protein: recombinant; tags: N-terminal polyhistidine and DsRed monomer fusion (pET32a); label: CyDye5-dUTP incorporated in the synthesized complementary strand; 3' TTTTT single-stranded linker to array surface; dsDNA, one strand shown. The method in brief: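 Polyhistidine-tagged DsRed fusions of transcription factors, joined at the N-terminus, were expressed in E. coli BL21-CodonPlus and isolated on Ni–NTA. They were incubated at 200 nM for 1 h at 25 °C on a custom Agilent array, double-stranded and BSA-blocked, in PBS with 2% BSA, salmon testes DNA and 50 µM zinc acetate. The binding signal is per-feature fluorescence intensity (arbitrary units) read on an Axon 4000B scanner after washing.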
For the sequence “GGGAGAGACCCGAGGCAGGTGGGCGGGGAGGGAATCGATGCGGAGTCACCTAGTGCAG”, the binding signal is 12800 fluorescence intensity (a.u.). “TTTGTAGTTTCACAATCAACATATAAGGACTCCGTTTTTTCGGAGTCACCTAGTGCAG”: the binding signal is 8700 fluorescence intensity (a.u.).

For the sequence “CTCCATATTTTAATGTATGCCGCCGTTGACTTTTTGTTTACGGAGTCACCTAGTGCAG”, the binding signal was 20200 fluorescence intensity (a.u.). The value for “ACCCACCACCACCACCACCGGCGCCGCCGCCGCCGCCGCCCGGAGTCACCTAGTGCAG” was 8180 fluorescence intensity (a.u.); that for “ACACGCAACATCTCTCTGCCCAATCCTCCTCCCGGCCAATCGGAGTCACCTAGTGCAG” was 9700 fluorescence intensity (a.u.).

For the sequence “CGCCTCACACCGCGGCCCCTCGCCACCGTCCCTGCGTCGCCGGAGTCACCTAGTGCAG”, the binding signal was 9800 fluorescence intensity (a.u.).

On to “CATTATGTTTTGACTGCATCAGATCCCGAATTCGTGCCACCGGAGTCACCTAGTGCAG”, for which the binding signal is 8930 fluorescence intensity (a.u.). Regarding “CTTCAGCTTCTTCTTCGCCATCTCTCCTCCCTGCTGCTCTCGGAGTCACCTAGTGCAG”, the binding signal is 9230 fluorescence intensity (a.u.). Take “TTTTTTCTTGGCTCACTCAATCACCTCGCTTACATCGCCACGGAGTCACCTAGTGCAG”: the binding signal is 9260 fluorescence intensity (a.u.).

“GGTGCATCCCACTATCGCTCTTTACACCCTCATTTGCAATCGGAGTCACCTAGTGCAG”: the binding signal was 10400 fluorescence intensity (a.u.).

For “CCAATAATATGCATATACACTGCTTACTTGACATGCCTTGCGGAGTCACCTAGTGCAG”, the binding signal is 8140 fluorescence intensity (a.u.). The value for “CTCTTCGTTCGACCGCTAGACGGTCTTTGCGTTTCTGTTTCGGAGTCACCTAGTGCAG” was 10800 fluorescence intensity (a.u.). The result for “TAAGGGTATTTTCGTATTCGGGGCTCTTAATTCATCCGCACGGAGTCACCTAGTGCAG” reads 12200 fluorescence intensity (a.u.); that for “ACACTTCTTAGATAATTCGTTCGTGAGCATAATAGCCTTTCGGAGTCACCTAGTGCAG”, 8630 fluorescence intensity (a.u.); that for “CATTTCTCTGTAATGCTTTTCGATTAGGATGCCATTAATTCGGAGTCACCTAGTGCAG”, 9620 fluorescence intensity (a.u.).

Turning to “TGGTCAATGTGCATTCGTCCTGTTCCTTTTCTTTCTTCCTCGGAGTCACCTAGTGCAG”, the binding signal is 8460 fluorescence intensity (a.u.).

As to “AAGATTCAAACATGCCCTTTGAGGGGTGGGAAATCATATCCGGAGTCACCTAGTGCAG”, the binding signal was 11200 fluorescence intensity (a.u.). On to “TACACCCAACATGGCCACATGCACCATATCATCGCCAAATCGGAGTCACCTAGTGCAG”, for which the binding signal was 11700 fluorescence intensity (a.u.). The value for “CTTACTCTGTCGCCTACTAGTCCACCTCTCACTGTTGTTCCGGAGTCACCTAGTGCAG” was 11500 fluorescence intensity (a.u.); that for “GGATTGGTTTTGAGATTGTTCTGTCAGATGGGGATTGTTTCGGAGTCACCTAGTGCAG” was 12700 fluorescence intensity (a.u.); that for “ATATCTCGTGTCATCTCTCCTTCATGCATACTGCTCAGTACGGAGTCACCTAGTGCAG” was 9290 fluorescence intensity (a.u.).

With “TCCCCGCGTCACCGGCCACCGGACCTCCTCTCTTGCGTCGCGGAGTCACCTAGTGCAG”, the binding signal is 8580 fluorescence intensity (a.u.). The result for “ACAGTTTCTTCTCGTCACAACTTCCAATTTCCCATCGCCCCGGAGTCACCTAGTGCAG” reads 8660 fluorescence intensity (a.u.); that for “TCCATGCCGCCGTCGCCGCCGCCGGCGCTCTCCCAGACGACGGAGTCACCTAGTGCAG”, 9160 fluorescence intensity (a.u.). On to “TCTCACACACTCTCTCGCACAAACTACATCATTTGGGATTCGGAGTCACCTAGTGCAG”, for which the binding signal is 9300 fluorescence intensity (a.u.). Turning to “CCCCACATTTTCTTTCACCTTCTCTTCCATTCCACCTCTCCGGAGTCACCTAGTGCAG”, the binding signal was 10100 fluorescence intensity (a.u.). The result for “AGTAACTTAAGCTTTATCTTCTTATCTTGGCCCATCTCTTCGGAGTCACCTAGTGCAG” reads 9740 fluorescence intensity (a.u.); that for “AACACCATCTCGTGCGCTCGTGGCCCTTGGATTCAACTACCGGAGTCACCTAGTGCAG”, 11000 fluorescence intensity (a.u.); that for “ATTATGTCATACATGCTGTCCAATTTTGTTCTATTTTGTTCGGAGTCACCTAGTGCAG”, 13100 fluorescence intensity (a.u.). Consider “ATACTTTTTTCTGAACGAATCGACGCTTAGGTGCGCCCATCGGAGTCACCTAGTGCAG”, for which the binding signal is 8660 fluorescence intensity (a.u.).

On to “TCCCACCTTTTTTCCGTTTCCTGCTTGCTTGCTTTCCTGACGGAGTCACCTAGTGCAG”, for which the binding signal is 12300 fluorescence intensity (a.u.). The value for “TGTCTCGGCCCCACCCAACCCCACCCCTCGCCCGTAGACCCGGAGTCACCTAGTGCAG” was 8200 fluorescence intensity (a.u.); that for “CTTTTATTGTTTTTTTCCCTTGATATAGATCATGTGTGACCGGAGTCACCTAGTGCAG” was 8330 fluorescence intensity (a.u.). Take “CCACCGATCCACCAACACCACGAGCAAATTTCTCTTCCAACGGAGTCACCTAGTGCAG”: the binding signal was 11700 fluorescence intensity (a.u.). For the sequence “GTCGCGATCATTTTTCACACGTCGGACGCTAGTCCACATCCGGAGTCACCTAGTGCAG”, the binding signal was 8380 fluorescence intensity (a.u.). Regarding “GGTTTGTTTTTTTTTGACGGAGGGAGTAGTTAAATTTGGCCGGAGTCACCTAGTGCAG”, the binding signal was 9120 fluorescence intensity (a.u.). The result for “TTTCGATTTGGTTTGGTCGCATTTGGTTTGATTTGATTCTCGGAGTCACCTAGTGCAG” reads 11100 fluorescence intensity (a.u.); that for “TCCTATTAGAATTCTACGTTTTTTCTATTTCTCTATTTTTCGGAGTCACCTAGTGCAG”, 14500 fluorescence intensity (a.u.); that for “AGTCGATTTAAGTTGGTTGGATTGGTGGTAGCGCGAAATCCGGAGTCACCTAGTGCAG”, 8450 fluorescence intensity (a.u.). For the sequence “CGTGTTCATGACTCCAACACTCACTACCGGCCACTAGCTACGGAGTCACCTAGTGCAG”, the binding signal is 9760 fluorescence intensity (a.u.). The value for “GGGTGTGTTTTCTCCTTAAAATACCTACATACACATATTTCGGAGTCACCTAGTGCAG” was 8280 fluorescence intensity (a.u.); that for “CGCGCGCCTCTCTCGGCCACACACCTCGCGCGTCCCCTTACGGAGTCACCTAGTGCAG” was 10200 fluorescence intensity (a.u.).
